Consider one substance from PMC7995733.

Sequences of proteins named here, by UniProt entry; tags and fusion partners are left off. Residues count along the entry.
UniProt P19957, residues 61-117: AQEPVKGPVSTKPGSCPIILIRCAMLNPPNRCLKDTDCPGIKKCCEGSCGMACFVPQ

The test concerns the target Elafin (endogenous, PLC-8024 cells) (human (endogenous in PLC-8024)) (UniProt P19957). As to the kind of experiment: affinity purification with mass spectrometry; immunoprecipitation of Elafin from the PLC-8024-cell-mixture (RIPA cell extracts mixed with concentrated conditioned medium), mass spectrometry of the precipitate.

These are yes or no findings as the source states them, for the method shown. In cells and extracts the contact can be indirect. A yes stands for co-enrichment or nearness to the bait. Other partners may have been found.

With “Epidermal growth factor receptor (endogenous, HCC cells) (from UniProt P00533 25-1210)”, the binding result is “binds”.
